For one molecule, binding results are on record in patent US20170267778A1.

Protein sequences, listed by entry. Tags and fused reporters are not part of them. Residues count along the entry.
UniProt P15941, residues 126-445: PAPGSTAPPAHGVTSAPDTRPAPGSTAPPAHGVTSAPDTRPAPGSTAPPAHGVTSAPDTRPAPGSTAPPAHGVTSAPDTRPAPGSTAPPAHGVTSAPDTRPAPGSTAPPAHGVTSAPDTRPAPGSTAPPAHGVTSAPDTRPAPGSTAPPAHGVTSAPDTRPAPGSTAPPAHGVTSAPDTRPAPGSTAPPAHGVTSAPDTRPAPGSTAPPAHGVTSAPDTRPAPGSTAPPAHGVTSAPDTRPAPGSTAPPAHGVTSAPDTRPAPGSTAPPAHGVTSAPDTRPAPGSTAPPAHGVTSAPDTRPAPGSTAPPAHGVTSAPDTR

Results are given in words; binding and its absence hold for the method and conditions named. Some results given as binding are weak or reduced against the parent protein; the word gives no strength.

This test addresses 16TR-MUC1-Tn (human) (UniProt P15941). Briefly: Tn-MUC1 binding ELISA (protocol 4).

B1: Ab6 (antibody, human IgG1, V domains shown)
VH: EVQLVESGAEVKKPGASVEVSCQASGYTFTDHAIHWVRQAPGQGLEWMGHFSPGNTDIKYNDKFKGRVTMTVDRSINTAYMELRRLRSDDTAVYYCKTSTFFFDYWGQGTMVTVSS
VL: DIVMTQSPLSLPVTPGEPASISCKSSQSLLNSGDQKNYLTWYLQKPGQSPQLLIYWASTRESGVPDRFSGSGSGTDFTLKISRVEAEDVGVYYCQNDYSYPLTFGGGTKVEIK
B1: the binding entry is listed as “binds”.
